Laboratory results published in PubChem BioAssay AID256 (DTP/NCI, 2004).
The list shows only some results of the screen, not a fair sample: it is rich in T/C values a quarter to a half above the control, in often repeated tests (any T/C) and in doses without a T/C. Other doses and runs of a compound stand elsewhere. T/C gives the treated animals as a percentage of the vehicle group. Some entries give survivors of the animals treated and no T/C: the source files T/C as zero there, which appears to mark a toxic dose or a test without result, not a measured value. Some doses without a T/C left all or most animals alive at the check, yet need not have been tolerated: the source hardly ever lists a survival T/C far under the control, and the zero likely stands for such cases as well. Survivors were counted at the toxicity check, usually on the fifth day, unless a day is given; later deaths do not show. Schedules are NCI's codes, taken here to give the interval after Q, in days (D) or hours (H), and the number of doses after X. For survival time, the PubChem record calls one and a half times the control and up active, and a quarter to a half above the control has no call in these data; cut-offs in other NCI protocols can differ. Some entries hold several experiments; the results are listed from low to high. Counts like (3×) say how often a value occurs here. Some T/C values are followed by the survivors on the day toxicity was checked, most often the fifth; where none is given, no animal had died by that day.

System: CD2F1 mice, L1210 leukemia ip, survival T/C
Assay: NCI In Vivo Anticancer Drug Screen. Data for tumor model L1210 Leukemia (intraperitoneal) in CD2F1 (CDF1) mice
Details: higher T/C = longer survival
How it was run: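 Mice carrying a transplanted tumor received test compound or vehicle alone. The value is the measurement in the treated group divided by that in the vehicle-treated control group.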

In the case of `COc1cccc2c1C(=O)c1c(O)c3c(c(O)c1C2=O)C[C@@](O)(C(=O)CO)C[C@@H]3OC1CC(N)C(O)C(C)O1` (stereo partly drawn), the survivor count (T/C endpoint: mean survival time, dose: 4.0 mg/kg/injection, schedule: Q01DX009 (ip), vehicle: water) is reported as 6 of 6, the T/C (T/C endpoint: mean survival time, dose: 5.0 mg/kg/injection, schedule: Q01DX001 (ip), vehicle: saline) is reported as 149 % of control and the T/C (T/C endpoint: mean survival time, dose: 5.0 mg/kg/injection, schedule: Q04DX003 (ip), vehicle: saline) is reported as 137 and 148 % of control. The T/C (T/C endpoint: mean survival time, dose: 5.0 mg/kg/injection, schedule: Q04DX003 (ip), vehicle: water) was 147 % of control, the survivor count (T/C endpoint: mean survival time, dose: 6.0 mg/kg/injection, schedule: Q01DX009 (ip), vehicle: saline) was 8 of 8 and the survivor count (T/C endpoint: mean survival time, dose: 6.25 mg/kg/injection, schedule: Q01DX009 (ip), vehicle: water) was 6 of 6. For the same compound, the T/C (T/C endpoint: mean survival time, dose: 6.6 mg/kg/injection, schedule: Q01DX001 (ip), vehicle: saline) was 145 % of control, the survivor count (T/C endpoint: mean survival time, dose: 7.78 mg/kg/injection, schedule: Q01DX009 (ip), vehicle: water) was 4 of 8 and the survivor count (T/C endpoint: mean survival time, dose: 8.0 mg/kg/injection, schedule: Q01DX005 (ip), vehicle: water) was 2 of 6. The T/C (T/C endpoint: mean survival time, dose: 8.0 mg/kg/injection, schedule: Q01DX009 (ip), vehicle: saline, evaluated on day 30) was 86, 93, 94 % of control, the T/C (T/C endpoint: mean survival time, dose: 8.0 mg/kg/injection, schedule: Q01DX009 (ip), vehicle: saline, evaluated on day 60) was 97 % of control and the survivor count (T/C endpoint: mean survival time, dose: 8.0 mg/kg/injection, schedule: Q01DX009 (ip), vehicle: saline) was 6 of 6. For the same compound, the T/C (T/C endpoint: mean survival time, dose: 9.0 mg/kg/injection, schedule: Q01DX001 (ip), vehicle: saline) was 140 % of control, the T/C (T/C endpoint: mean survival time, dose: 10.0 mg/kg/injection, schedule: Q01DX001 (ip), vehicle: saline, evaluated on day 5) was 202 % of control and the T/C (T/C endpoint: mean survival time, dose: 10.0 mg/kg/injection, schedule: Q01DX001 (ip), vehicle: saline, evaluated on day 45) was 148, 158, 202 % of control. The T/C (T/C endpoint: mean survival time, dose: 10.0 mg/kg/injection, schedule: Q01DX001 (ip), vehicle: saline, evaluated on day 60) was 294 % of control, the T/C (T/C endpoint: mean survival time, dose: 10.0 mg/kg/injection, schedule: Q04DX003 (ip), vehicle: saline) was 139 % of control and the T/C (T/C endpoint: mean survival time, dose: 10.0 mg/kg/injection, schedule: Q04DX003 (ip), vehicle: water) was 133 % of control. For the same compound, the survivor count (T/C endpoint: mean survival time, dose: 12.0 mg/kg/injection, schedule: Q01DX009 (ip), vehicle: saline) was 6 of 6, the survivor count (T/C endpoint: mean survival time, dose: 12.96 mg/kg/injection, schedule: Q01DX009 (ip), vehicle: water) was 0 of 8 and the survivor count (T/C endpoint: mean survival time, dose: 16.0 mg/kg/injection, schedule: Q04DX003 (ip), vehicle: water) was 5 of 6. For the same compound, the T/C (T/C endpoint: mean survival time, dose: 20.0 mg/kg/injection, schedule: Q01DX001 (ip), vehicle: saline, evaluated on day 5) was 127 % of control, the T/C (T/C endpoint: mean survival time, dose: 20.0 mg/kg/injection, schedule: Q01DX001 (ip), vehicle: saline, evaluated on day 45) was 127 % of control [9 of 10 alive] and the survivor count (T/C endpoint: mean survival time, dose: 21.6 mg/kg/injection, schedule: Q01DX001 (ip), vehicle: water) was 8 of 8. The survivor count (T/C endpoint: mean survival time, dose: 40.0 mg/kg/injection, schedule: Q01DX001 (ip), vehicle: water) was 0 of 6, the T/C (T/C endpoint: median survival time, dose: 0.13 mg/kg/injection, schedule: Q01DX009 (ip), vehicle: saline) was 131 % of control and the T/C (T/C endpoint: median survival time, dose: 0.25 mg/kg/injection, schedule: Q01DX009 (ip), vehicle: saline) was 137 and 142 % of control. The T/C (T/C endpoint: median survival time, dose: 0.5 mg/kg/injection, schedule: Q01DX005 (ip), vehicle: water) was 137 % of control, the T/C (T/C endpoint: median survival time, dose: 0.5 mg/kg/injection, schedule: Q01DX009 (ip), vehicle: saline, evaluated on day 5) was 144 % of control and the T/C (T/C endpoint: median survival time, dose: 0.5 mg/kg/injection, schedule: Q01DX009 (ip), vehicle: saline, evaluated on day 30) was 140 % of control. For the same compound, the T/C (T/C endpoint: median survival time, dose: 1.0 mg/kg/injection, schedule: Q01DX001 (ip), vehicle: saline, evaluated on day 6) was 104, 105, 107, 117, 123, 128 % of control, the T/C (T/C endpoint: median survival time, dose: 1.0 mg/kg/injection, schedule: Q01DX001 (ip), vehicle: saline, evaluated on day 11) was 104, 105, 107, 117, 123, 128 % of control and the T/C (T/C endpoint: median survival time, dose: 1.0 mg/kg/injection, schedule: Q01DX001 (ip), vehicle: water, evaluated on day 5) was 130 % of control. The T/C (T/C endpoint: median survival time, dose: 1.0 mg/kg/injection, schedule: Q01DX001 (ip), vehicle: water, evaluated on day 33) was 130 % of control, the T/C (T/C endpoint: median survival time, dose: 1.0 mg/kg/injection, schedule: Q01DX009 (ip), vehicle: saline, evaluated on day 5) was 134 and 143 % of control and the T/C (T/C endpoint: median survival time, dose: 1.0 mg/kg/injection, schedule: Q01DX009 (ip), vehicle: saline, evaluated on day 30) was 129 and 152 % of control. For the same compound, the T/C (T/C endpoint: median survival time, dose: 1.0 mg/kg/injection, schedule: Q04DX003 (ip), vehicle: saline) was 142 % of control, the T/C (T/C endpoint: median survival time, dose: 1.0 mg/kg/injection, schedule: Q04DX003 (ip), vehicle: water, evaluated on day 30) was 130 % of control and the T/C (T/C endpoint: median survival time, dose: 1.0 mg/kg/injection, schedule: Q04DX003 (ip), vehicle: water, evaluated on day 35) was 145 % of control. For the same compound, the T/C (T/C endpoint: median survival time, dose: 2.0 mg/kg/injection, schedule: Q01DX001 (ip), vehicle: saline, evaluated on day 6) was 103, 104, 117, 126 (2×), 130 % of control, the T/C (T/C endpoint: median survival time, dose: 2.0 mg/kg/injection, schedule: Q01DX001 (ip), vehicle: saline, evaluated on day 11) was 103, 104, 117, 126 (2×), 130 % of control and the T/C (T/C endpoint: median survival time, dose: 2.0 mg/kg/injection, schedule: Q01DX001 (ip), vehicle: water, evaluated on day 5) was 130 % of control. The T/C (T/C endpoint: median survival time, dose: 2.0 mg/kg/injection, schedule: Q01DX001 (ip), vehicle: water, evaluated on day 33) was 130 % of control.
